Patent US20190345446A1 (BROAD INSTITUTE, published 2019)
Results are given in words; binding and its absence hold for the method and conditions named. In cells and extracts the contact can be indirect. Some results given as binding are weak or reduced against the parent protein; the word gives no strength.

Key:
[1] = target: T1, Fas (mouse death receptor Fas, endogenous in EL4 cells and primary mouse CD4+ T cells) (mouse) (UniProt P25446); assay: co-immunoprecipitation (discussion of the results)
T1 sequence (looked up): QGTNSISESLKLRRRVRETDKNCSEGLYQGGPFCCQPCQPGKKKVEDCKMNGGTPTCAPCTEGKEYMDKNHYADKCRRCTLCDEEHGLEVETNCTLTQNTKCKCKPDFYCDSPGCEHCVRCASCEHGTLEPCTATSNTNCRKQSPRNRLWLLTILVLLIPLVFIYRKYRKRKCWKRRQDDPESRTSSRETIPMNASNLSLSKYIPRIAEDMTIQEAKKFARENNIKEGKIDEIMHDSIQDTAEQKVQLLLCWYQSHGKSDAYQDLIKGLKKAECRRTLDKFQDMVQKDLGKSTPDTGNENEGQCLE

[2] = target: T1, Fas (mouse death receptor Fas, endogenous in EL4 cells and primary mouse CD4+ T cells) (mouse); assay: co-immunoprecipitation, legend of FIGS. 5A-5E (panels 5D, 5E)
[3] = target: T1, Fas (mouse death receptor Fas, endogenous in EL4 cells and primary mouse CD4+ T cells) (mouse); assay: co-immunoprecipitation from EL4 cells stimulated with biotinylated anti-Fas Ab and streptavidin; Protein G beads; Western blot
[4] = target: T1, Fas (mouse death receptor Fas, endogenous in EL4 cells and primary mouse CD4+ T cells) (mouse); assay: co-immunoprecipitation with anti-Fas Ab from primary mouse CD4+ T cells, unstimulated or stimulated with multimerized FasL; Western blot

Measured: binding

B1: STAT1 (mouse signal transducer and activator of transcription 1, endogenous) (protein, UniProt P42225 2-749, looked up)
chain: SQWFELQQLDSKFLEQVHQLYDDSFPMEIRQYLAQWLEKQDWEHAAYDVSFATIRFHDLLSQLDDQYSRFSLENNFLLQHNIRKSKRNLQDNFQEDPVQMSMIIYNCLKEERKILENAQRFNQAQEGNIQNTVMLDKQKELDSKVRNVKDQVMCIEQEIKTLEELQDEYDFKCKTSQNREGEANGVAKSDQKQEQLLLHKMFLMLDNKRKEIIHKIRELLNSIELTQNTLINDELVEWKRRQQSACIGGPPNACLDQLQTWFTIVAETLQQIRQQLKKLEELEQKFTYEPDPITKNKQVLSDRTFLLFQQLIQSSFVVERQPCMPTHPQRPLVLKTGVQFTVKSRLLVKLQESNLLTKVKCHFDKDVNEKNTVKGFRKFNILGTHTKVMNMEESTNGSLAAELRHLQLKEQKNAGNRTNEGPLIVTEELHSLSFETQLCQPGLVIDLETTSLPVVVISNVSQLPSGWASILWYNMLVTEPRNLSFFLNPPCAWWSQLSEVLSWQFSSVTKRGLNADQLSMLGEKLLGPNAGPDGLIPWTRFCKENINDKNFSFWPWIDTILELIKNDLLCLWNDGCIMGFISKERERALLKDQQPGTFLLRFSESSREGAITFTWVERSQNGGEPDFHAVEPYTKKELSAVTFPDIIRNYKVMAAENIPENPLKYLYPNIDKDHAFGKYYSRPKEAPEPMELDDPKRTGYIKTELISVSEVHPSRLQTTDNLLPMSPEEFDEMSRIVGPEFDSMMSTV
binds: [1] | [2] | [3] | [4]
